{
  "source": "paper PMC12296705",
  "about": "“In Vivo and Bioinformatics Evaluation of Nine Traditional Chinese Medicine Compounds Targeting Acetylcholinesterase and Butyrylcholinesterase Enzymes in Alzheimer’s Disease” (Iranian Journal of Pharmaceutical Research : IJPR, 2025)",
  "key": {"[1]": {"tested_on": "lead acetate-induced AD (LA-AD) rats", "assay": "Glutathione (GSH) content in brain tissue of LA-AD rats", "type": "in vivo, rat", "conditions": "1 mg/kg IP for 15 days, compared to the LA-AD group"}, "[2]": {"tested_on": "lead acetate-induced AD (LA-AD) rats", "assay": "Lipid peroxidation (MDA) in brain tissue of LA-AD rats", "type": "in vivo, rat", "conditions": "1 mg/kg IP for 15 days, compared to the LA-AD group"}},
  "data": [
    {"smiles": "COc1cc2c(cc1OC)C(=O)C(CC1CCN(Cc3ccccc3)CC1)C2", "note": "(centres unmarked) [Donepezil, reference compound]", "values": [
      {"measurement": "Glutathione (GSH) levels", "setting": "[1]", "result": "significantly increased"},
      {"measurement": "Malondialdehyde (MDA) levels", "setting": "[2]", "result": "significantly reduced"}
    ]}
  ]
}
